Reference: PubChem BioAssay AID1259296 (Sanger Institute, 2017)
This is an unselected part of 160 reagents tested. 45 of all reagents (28%) count as active. 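Calls are per single siRNA duplex in CAR1 cells only; how the synergy score is calculated is not stated.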 Reagents against one gene are numbered here. Further read-outs or replicates are left out here. No sequences are given here. Not stated in the record: the amount of reagent, the time to read-out.

Assay: 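Kinase and drug combinations that are synthetically lethal in CAR1 colorectal cells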 (follow-up of hits)
System: CAR1 human colorectal cancer cells
Knock-down reagent: single siRNA against human genes
Conditions: anchor drugs BYL719 at 1 µM, cetuximab at 5 µg/ml or trametinib at 10 nM, or DMSO vehicle, added a day after transfection
Detection: 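Viability of cells versus control pool 2 (non-targeting) averaged across replicates; for every anchor drug, synergy score comparing joint effect with drug or siRNA alone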
Direction: synergy with BYL719 and synergy with cetuximab and synergy with trametinib: higher = stronger synergy between knock-down and drug
Call rule: 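Active when synergy exceeds 0.10 with BYL719, cetuximab or trametinib, any one sufficing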

MARK3 #1
- synergy with BYL719: -0.0673
- synergy with cetuximab: -0.136
- synergy with trametinib: -0.115
- outcome: inactive

MARK3 #2
- synergy with BYL719: -0.0865
- synergy with cetuximab: -0.00884
- synergy with trametinib: 0.0226
- outcome: inactive

MARK3 #3
- synergy with BYL719: -0.0403
- synergy with cetuximab: -0.0514
- synergy with trametinib: 0.182
- outcome: active

MARK3 #4
- synergy with BYL719: 0.105
- synergy with cetuximab: -0.0326
- synergy with trametinib: 0.114
- outcome: active

PFKFB3 #1
- synergy with BYL719: 0.0518
- synergy with cetuximab: 0.00952
- synergy with trametinib: -0.0908
- outcome: inactive

PFKFB3 #2
- synergy with BYL719: -0.014
- synergy with cetuximab: 0.0271
- synergy with trametinib: 0.0138
- outcome: inactive

PFKFB3 #3
- synergy with BYL719: -0.124
- synergy with cetuximab: -0.0761
- synergy with trametinib: -0.0662
- outcome: inactive

PFKFB3 #4
- synergy with BYL719: -0.0981
- synergy with cetuximab: 0.0211
- synergy with trametinib: 0.0223
- outcome: inactive

GUCY2D #1
- synergy with BYL719: -0.0806
- synergy with cetuximab: -0.105
- synergy with trametinib: -0.0316
- outcome: inactive

GUCY2D #2
- synergy with BYL719: 0.115
- synergy with cetuximab: -0.0452
- synergy with trametinib: 0.148
- outcome: active

GUCY2D #3
- synergy with BYL719: -0.0466
- synergy with cetuximab: -0.0435
- synergy with trametinib: 0.0336
- outcome: inactive

GUCY2D #4
- synergy with BYL719: -0.00631
- synergy with cetuximab: -0.0607
- synergy with trametinib: 0.0556
- outcome: inactive

Just “synergy with cetuximab” (2 entries from above):
MARK3 #1: -0.136
MARK3 #2: -0.00884
